Results are given in words; binding and its absence hold for the method and conditions named. In cells and extracts the contact can be indirect. Some results given as binding are weak or reduced against the parent protein; the word gives no strength. Sequences can lack the tags named with a protein.
Target: T1, Rubicon-Flag (Homo sapiens (Human)) (UniProt Q92622)
T1 sequence: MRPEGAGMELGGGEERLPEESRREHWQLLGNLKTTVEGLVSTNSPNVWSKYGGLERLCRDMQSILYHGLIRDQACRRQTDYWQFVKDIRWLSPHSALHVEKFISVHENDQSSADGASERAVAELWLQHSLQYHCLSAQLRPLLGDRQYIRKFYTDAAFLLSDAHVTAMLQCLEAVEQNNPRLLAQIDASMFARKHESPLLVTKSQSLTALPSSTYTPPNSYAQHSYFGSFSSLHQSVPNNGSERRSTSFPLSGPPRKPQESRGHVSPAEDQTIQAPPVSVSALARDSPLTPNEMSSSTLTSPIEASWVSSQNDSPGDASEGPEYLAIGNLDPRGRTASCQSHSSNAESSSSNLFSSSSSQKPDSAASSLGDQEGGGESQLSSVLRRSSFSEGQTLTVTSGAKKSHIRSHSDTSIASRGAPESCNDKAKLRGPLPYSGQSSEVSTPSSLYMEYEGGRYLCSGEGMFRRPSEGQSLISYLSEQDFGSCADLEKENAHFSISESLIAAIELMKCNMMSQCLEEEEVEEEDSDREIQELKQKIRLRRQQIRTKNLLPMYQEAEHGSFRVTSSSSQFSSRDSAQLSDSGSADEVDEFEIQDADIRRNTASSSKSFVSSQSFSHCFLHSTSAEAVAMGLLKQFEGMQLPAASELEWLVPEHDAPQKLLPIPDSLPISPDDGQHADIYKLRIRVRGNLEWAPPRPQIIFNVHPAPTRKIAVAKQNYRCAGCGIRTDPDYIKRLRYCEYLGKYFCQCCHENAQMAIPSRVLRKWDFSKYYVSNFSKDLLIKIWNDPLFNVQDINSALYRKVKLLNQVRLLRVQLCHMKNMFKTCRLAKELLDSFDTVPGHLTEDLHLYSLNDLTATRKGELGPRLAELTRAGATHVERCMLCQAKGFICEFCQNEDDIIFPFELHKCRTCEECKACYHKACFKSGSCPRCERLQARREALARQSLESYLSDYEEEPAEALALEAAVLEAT
Assay: co-immunoprecipitation from HEK lysates over-expressing human LRRK2-GFP and/or Rubicon-Flag

The chains behind the UniProt entries cited, without tags or fusion partners. Where a name states a change or a piece, a line headed by the entry shows the natural chain unless it says otherwise.
UniProt Q5S007: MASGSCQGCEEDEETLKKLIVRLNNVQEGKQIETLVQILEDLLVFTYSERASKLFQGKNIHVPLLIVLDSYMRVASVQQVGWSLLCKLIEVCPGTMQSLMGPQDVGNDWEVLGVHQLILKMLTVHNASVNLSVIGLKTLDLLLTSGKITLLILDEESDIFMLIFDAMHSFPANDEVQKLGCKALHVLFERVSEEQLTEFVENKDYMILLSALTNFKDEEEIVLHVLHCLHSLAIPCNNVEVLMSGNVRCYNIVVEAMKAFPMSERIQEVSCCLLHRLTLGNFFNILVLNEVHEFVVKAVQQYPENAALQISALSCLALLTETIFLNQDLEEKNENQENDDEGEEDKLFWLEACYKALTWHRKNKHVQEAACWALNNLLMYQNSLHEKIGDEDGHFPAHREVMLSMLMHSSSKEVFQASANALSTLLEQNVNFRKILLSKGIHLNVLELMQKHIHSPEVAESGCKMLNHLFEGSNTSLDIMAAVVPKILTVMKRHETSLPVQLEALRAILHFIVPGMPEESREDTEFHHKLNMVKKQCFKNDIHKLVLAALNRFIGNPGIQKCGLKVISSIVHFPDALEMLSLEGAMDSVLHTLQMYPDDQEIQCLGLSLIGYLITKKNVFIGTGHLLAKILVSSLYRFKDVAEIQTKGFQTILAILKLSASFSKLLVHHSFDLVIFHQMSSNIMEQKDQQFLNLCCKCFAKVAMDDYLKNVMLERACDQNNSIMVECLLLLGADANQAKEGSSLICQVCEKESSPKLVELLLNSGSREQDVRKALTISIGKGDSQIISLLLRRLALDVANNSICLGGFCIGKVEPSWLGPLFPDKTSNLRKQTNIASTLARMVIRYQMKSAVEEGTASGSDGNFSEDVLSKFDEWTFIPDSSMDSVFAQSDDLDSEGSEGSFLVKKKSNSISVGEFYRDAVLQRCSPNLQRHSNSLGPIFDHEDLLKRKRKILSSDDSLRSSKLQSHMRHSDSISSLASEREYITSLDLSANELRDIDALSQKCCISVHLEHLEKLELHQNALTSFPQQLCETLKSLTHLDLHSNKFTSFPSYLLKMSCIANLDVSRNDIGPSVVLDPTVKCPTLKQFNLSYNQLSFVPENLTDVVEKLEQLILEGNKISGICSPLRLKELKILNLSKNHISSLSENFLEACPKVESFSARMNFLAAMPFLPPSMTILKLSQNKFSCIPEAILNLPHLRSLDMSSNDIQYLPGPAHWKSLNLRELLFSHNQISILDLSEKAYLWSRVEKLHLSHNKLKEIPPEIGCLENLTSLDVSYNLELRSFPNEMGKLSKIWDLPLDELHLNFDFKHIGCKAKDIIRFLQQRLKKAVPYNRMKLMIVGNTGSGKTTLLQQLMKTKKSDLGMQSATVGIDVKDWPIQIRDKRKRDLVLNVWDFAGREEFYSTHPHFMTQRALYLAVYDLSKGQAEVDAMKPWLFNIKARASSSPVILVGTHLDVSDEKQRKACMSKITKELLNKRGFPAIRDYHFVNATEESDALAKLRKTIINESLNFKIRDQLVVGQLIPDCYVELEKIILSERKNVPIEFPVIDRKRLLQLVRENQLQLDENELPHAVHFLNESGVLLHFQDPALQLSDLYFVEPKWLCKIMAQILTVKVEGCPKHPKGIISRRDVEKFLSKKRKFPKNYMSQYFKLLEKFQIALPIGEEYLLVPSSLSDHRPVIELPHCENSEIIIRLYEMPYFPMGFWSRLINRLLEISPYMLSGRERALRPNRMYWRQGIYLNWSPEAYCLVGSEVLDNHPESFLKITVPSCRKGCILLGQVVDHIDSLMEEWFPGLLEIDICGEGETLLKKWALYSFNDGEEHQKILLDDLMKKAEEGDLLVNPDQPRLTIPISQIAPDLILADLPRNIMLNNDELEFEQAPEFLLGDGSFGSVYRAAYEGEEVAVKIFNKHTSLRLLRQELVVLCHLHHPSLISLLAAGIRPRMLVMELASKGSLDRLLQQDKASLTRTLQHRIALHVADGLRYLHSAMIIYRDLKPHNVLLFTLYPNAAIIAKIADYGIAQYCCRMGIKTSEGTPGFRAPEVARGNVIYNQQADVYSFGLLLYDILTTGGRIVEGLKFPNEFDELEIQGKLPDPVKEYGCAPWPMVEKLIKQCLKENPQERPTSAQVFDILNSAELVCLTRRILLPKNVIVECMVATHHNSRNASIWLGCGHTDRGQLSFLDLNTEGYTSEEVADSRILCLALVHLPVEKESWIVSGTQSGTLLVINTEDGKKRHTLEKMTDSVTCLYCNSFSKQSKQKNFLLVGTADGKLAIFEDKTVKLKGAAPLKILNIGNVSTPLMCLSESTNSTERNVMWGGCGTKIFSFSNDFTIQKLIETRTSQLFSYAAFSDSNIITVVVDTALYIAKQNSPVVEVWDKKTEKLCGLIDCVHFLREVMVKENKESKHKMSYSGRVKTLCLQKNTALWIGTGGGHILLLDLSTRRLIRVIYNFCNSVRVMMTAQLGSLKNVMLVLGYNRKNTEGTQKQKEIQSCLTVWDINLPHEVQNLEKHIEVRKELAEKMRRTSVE

human LRRK2-GFP (from UniProt Q5S007 1-2527) (enzyme)
binding: binds

Source: US20220169720A1
